In US20060140889A1 one finds binding data, which are given here for 3 molecules.

B1: iMab136-xx-0001 (designed binder, not shown: small tags and cut ends)
chain: MNVKLVEKGGNFVENDDDLRLTCRAEGYTIGPYCMGWFRQAPNRDSTNVATINMGGGITYYGDSVKERFDIRRDNASNTVTLSMTNLQPSDSASYNCAADSTIYASYYECGHGLSTGGYGYDSRGQGTRVTVSS
B2: iMab135-xx-0001 (designed binder, not shown: small tags and cut ends)
chain: MNVQLVESGGNFVENDQDLSLTCRASGYTIGPYCMGWFRQAPNQDSTGVATINMGGGITYYGDSVKERFRIRRDNASNTVTLSMQNLQPQDSANYNCAADSTIYASYYECGHGLSTGGYGYDSRGQGTSVTVSS
B3: iMab137-xx-0001 (designed binder, not shown: small tags and cut ends)
chain: MNVQLVESGGNFVENDQSLSLTCRASGYTIGPYCMGWFRQAPNSRSTGVATINMGGGITYYGDSVKGRFTIRRDNASNTVTLSMNDLQPRDSAQYNCAADSTIYASYYECGHGLSTGGYGYDSRGQGTDVTVSS

These are yes or no findings as the source states them, for the method shown. Some binding calls cover weakened binding; strength is not graded here.

In this experiment the target is chicken lysozyme (chicken) (UniProt P00698). The experiment in a line: ELISA as in Example 8. (In an ELISA, binding on a coated surface is turned into a signal by an enzyme label.)
Take B1: the binding result was “binds”.

Regarding B2, the binding result is “binds”.

Regarding B3, the binding entry was “binds”.
